Where “and” joins values, the source holds several entries; their conditions need not be identical. Equal entries are not always repeated. The list shows a part of the results. Further columns of the screen follow, without active or inactive calls. Most of these compounds were active or inconclusive in the main read-out, so they are no random draw. Words in brackets tell the shape of the fitted curve; partial curves, single points and poor fits give uncertain potencies.
Test: qHTS Assay for Modulators of Lamin A Splicing
Details: HeLa LMNA splicing GFP/RFP minigene ratio, 48 h
In short: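 S3 HeLa stable clones carrying a lamin A-EGFP splicing minigene plus DsRed2 were seeded at 600 cells/well in Opti-MEM with 2% FBS, pin-dosed and incubated 48 h at 37°C. Acumen cytometry (488 nm) gave the GFP/RFP total-intensity ratio.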

[1] = measured here: GFP splicing reporter channel
[2] = measured here: RFP viability control channel

Compound	AC50 [1]	AC50 [2]
Cc1cccc2sc(N(Cc3cccnc3)C(=O)C3COc4ccccc4O3)nc12 (stereo not drawn)	0.00316 µM [falling, full curve, poor fit]	–
COC(=O)c1c(NC(=O)c2ccc(S(=O)(=O)N(C)C3CCCCC3)cc2)sc2c1CCN(C)C2	–	11.2 µM [falling, single point]
O=c1cc(NS(=O)(=O)c2ccccc2)nc(SCc2ccc(Cl)cc2)[nH]1	–	35.5 µM [rising, single point]
COc1ccc(CNCC(O)(c2ccc(Cl)cc2)c2ccc(Cl)cc2)cc1	12.6 µM [falling, partial curve]	22.4 µM [falling, partial curve]
COc1c(C)cc(C(=O)C2CCCN(C(=O)c3ccoc3)C2)cc1C (stereo not drawn)	10 µM [falling, partial curve]	–
CC(=O)Nc1ccc(NC(=O)c2cc(-c3ccc4c(c3)OCCO4)on2)cc1	–	0.316 µM [falling, full curve, poor fit]
O=C(c1ccccc1)[C@@H]1[C@@H](C(=O)c2ccc(F)cc2)[C@@]2(C(=O)Nc3ccccc32)[C@H]2c3ccccc3C=CN12	–	22.4 µM [rising, single point]
CC1CNCCN1S(=O)(=O)c1cccc2cnccc12 (stereo not drawn)	35.5 µM [falling, single point]	25.1 µM [falling, partial curve]
COC(=O)CNC(c1ccccc1)c1cc(Br)ccc1NS(=O)(=O)c1ccc(C)cc1 (stereo not drawn)	–	35.5 µM [rising, single point]
COC(=O)CCC(=O)OC1(C)C(=O)C=C2C=C(C3CC3)N(Cc3ccccc3)C=C2C1=O (stereo not drawn)	0.0316 µM [rising, partial curve]	–
COc1ccc(-c2nc(SCC(=O)NCCc3ccccc3)n[nH]2)cc1	–	0.0224 µM [falling, full curve, poor fit]
CCOC(=O)CN(Cc1sccc1C)C(=O)Nc1ccc(OC)cc1OC	25.1 µM [rising, single point]	20 µM [rising, single point]
CC(C)(C)c1ccc([C@@H](O)CCCN2CCC(C(O)(c3ccccc3)c3ccccc3)CC2)cc1	11.2 µM [falling, partial curve]	8.91 µM [falling, single point]
CN(C)S(=O)(=O)c1cccc(NC(=O)Cc2ccc(Cl)cc2)c1	8.91 µM [rising, partial curve]	15.8 µM [rising, partial curve]
Cc1ccc2onc(CC(=O)N3CCN(c4ccccc4)CC3)c2c1	35.5 µM [falling, single point]	0.0316 µM [falling, full curve, poor fit]
COc1ccc(NS(=O)(=O)c2ccc(S(=O)(=O)N3CCCC3)cc2)cc1Cl	–	15.8 µM [rising, single point]
Cc1cc(-c2ccccc2)nc(N(C)NC(=O)C2CC2)c1S(C)(=O)=O	6.31 µM [rising, partial curve]	3.55 µM [rising, full curve, poor fit]
C=CCNc1ncnc2c1[nH]c1ccc(C)cc12	12.6 µM [rising, partial curve]	15.8 µM [rising, partial curve]
CCCC(=O)Nc1ccc2nc(SCC(=O)Nc3ccc(N4CCOCC4)c(Cl)c3)sc2c1	0.00501 µM [falling, full curve, poor fit]	0.00447 µM [falling, full curve, poor fit]
O=C(CSc1cn(CCNC(=O)c2cccs2)c2ccccc12)NC1CCCCC1	–	7.94 µM [rising, partial curve, poor fit]
O=C(NCCc1ccccc1)c1ccc(CS(=O)(=O)c2ccc(Cl)cc2)o1	0.794 µM [falling, full curve]	6.31 µM [rising, single point] and 20 nM [falling, full curve]
CCn1c(=S)sc2c(=O)n(-c3ccccc3)c(SC)nc21	–	14.1 µM [rising, partial curve]
N#Cc1c(NC(=S)NC(=O)Cc2cccs2)sc2c1CCCCC2	17.8 µM [rising, single point]	31.6 µM [rising, single point]
CCOCCCNC(=O)c1cc2c(=O)n3cccc(C)c3nc2n1C	–	0.0447 µM [rising, full curve, poor fit]
O=C(CSc1nc(-c2ccco2)cc(C(F)(F)F)n1)N1CCN(c2ccc(Cl)cc2)CC1	–	22.4 µM [rising, partial curve]
COc1ccc(-c2nc3cnc(N(C)C)nc3n(Cc3cccs3)c2=O)cc1	–	35.5 µM [falling, single point]
CN(C)c1cccc2c(C=C(C#N)C#N)ccc(N(C)C)c12	2.51 µM [rising, full curve, poor fit]	2.51 µM [rising, full curve]

3 entries already listed, sorted by number of heavy atoms, rising.
Compound	AC50 [1]	AC50 [2]
C=CCNc1ncnc2c1[nH]c1ccc(C)cc12	12.6 µM [rising, partial curve]	15.8 µM [rising, partial curve]
Cc1cccc2sc(N(Cc3cccnc3)C(=O)C3COc4ccccc4O3)nc12 (stereo not drawn)	0.00316 µM [falling, full curve, poor fit]	–
O=C(CSc1nc(-c2ccco2)cc(C(F)(F)F)n1)N1CCN(c2ccc(Cl)cc2)CC1	–	22.4 µM [rising, partial curve]

Carrying on:

Compound	AC50 [1]	AC50 [2]
CCOC(=O)C1=C[C@]2(CC)CCCN3CCc4c(n1c1ccccc41)[C@@H]32	–	11.2 µM [rising, single point]
CC(=O)N1CCN(Cc2nc3cc(NC(=O)c4ccc(Cl)cc4)ccc3n2C)CC1	15.8 µM [rising, single point]	14.1 µM [rising, single point]
CCOC(=O)CCc1nc2ccccc2[nH]c1=O	–	0.00708 µM [rising, full curve, poor fit]
CCOc1ccccc1N(CC(=O)Nc1ccc(S(=O)(=O)N2CCOCC2)cc1)S(=O)(=O)c1ccc(Cl)cc1	2.82 µM [rising, single point]	–
COC(=O)Nc1ccc(S(=O)(=O)Nc2ccc(O)cc2)cc1	–	28.2 µM [rising, single point]
Cc1[nH]n(-c2ncc(-c3ccccc3)s2)c(=O)c1C(c1ccc(Br)cc1)C(C#N)C#N (stereo not drawn)	–	20 µM [rising, partial curve]
COc1ccc(CN2CCN(c3ccccn3)CC2)cc1OCc1ccccc1	–	17.8 µM [rising, single point]
CCN1CCN(c2cc(C)c3cc(NC(=S)NCCCN4CCc5ccccc5C4)ccc3n2)CC1	–	17.8 µM [rising, partial curve, poor fit]
CC1CN(S(=O)(=O)c2cccc3cnccc23)CCN1 (stereo not drawn)	3.55 µM [rising, full curve]	–
Cc1c(CN2CCC(CO)(CCOc3ccccc3)CC2)[nH]c2ccc(Cl)cc12	11.2 µM [falling, partial curve]	35.5 µM [falling, partial curve, poor fit]
O=C(NP(=O)(N1CCOCC1)N1CCOCC1)C1=C(N2CCOCC2)/C(=C\c2ccccc2)CC1	35.5 µM [falling, single point]	–
CCC1=NN2C(=N)/C(=C/c3c(C)nn(-c4ccccc4)c3Cl)C(=O)N=C2S1	–	12.6 µM [rising, single point]
CCOc1c(O)ccc(/C=C2\SC(=S)NC2=O)c1[N+](=O)[O-]	–	35.5 µM [rising, single point]
O=C(CCSCc1ccc(Cl)cc1)NCc1ccc(F)cc1Cl	–	31.6 µM [rising, single point]
CCOC(=O)N/N=C/c1cn(CCCOc2ccc(C)cc2)c2ccccc12	0.224 µM [rising, full curve, poor fit]	28.2 µM [rising, single point]
CCC(=O)NC(=S)Nc1ccc(NC(=O)c2ccc([N+](=O)[O-])cc2)cc1	25.1 µM [rising, single point]	31.6 µM [rising, single point]
O=C(NCc1cccs1)c1cccnc1SCCS(=O)(=O)c1ccc(C(F)(F)F)cn1	–	35.5 µM [falling, partial curve, poor fit]
CCOc1ccc(Nc2oc(Cc3ccccc3)nc2C#N)cc1	–	14.1 µM [rising, single point]
CCOC(CCn1c(SCc2cccc([N+](=O)[O-])c2)nc2ccccc2c1=O)OCC	12.6 µM [rising, single point]	14.1 µM [rising, partial curve]
Cc1cc2oc(=O)cc(CN3CCN(S(=O)(=O)c4ccc5c(c4)OCCO5)CC3)c2cc1C	4.47 µM [rising, single point]	5.62 µM [rising, single point]
N#CC(C#N)=C1C=C2C=C(N3CCOCC3)CCC2CC1 (stereo not drawn)	0.891 µM [falling, full curve]	0.891 µM [falling, full curve]
C=CCNC(=O)CC(=O)N/N=C/c1cccc(C)c1	–	0.2 µM [rising, full curve, poor fit]
O=[N+]([O-])c1ccc(N2CCN(S(=O)(=O)c3ccc(Cl)c(Cl)c3)CC2)cc1NCCN1CCOCC1	–	6.31 µM [falling, single point]
O=C(CCN1C(=O)/C(=C/c2cccs2)SC1=S)Nc1ccccn1	–	35.5 µM [falling, single point]
Nc1cc(C(F)(F)F)ccc1N1CCOCC1	–	2.82 µM [falling, single point]
CCN(c1ccccc1)S(=O)(=O)c1cc(NC(=O)Nc2ccccc2C#N)ccc1Cl	–	6.31 µM [rising, partial curve, poor fit]
CCc1nn(-c2cc(Cl)ccc2OC)c2c1C(=O)CCC2	–	31.6 µM [rising, single point]

Of the compounds above, 8 have an aryl methoxy group:
Compound	AC50 [1]	AC50 [2]
COc1ccc(CNCC(O)(c2ccc(Cl)cc2)c2ccc(Cl)cc2)cc1	12.6 µM [falling, partial curve]	22.4 µM [falling, partial curve]
COc1c(C)cc(C(=O)C2CCCN(C(=O)c3ccoc3)C2)cc1C (stereo not drawn)	10 µM [falling, partial curve]	–
COc1ccc(-c2nc(SCC(=O)NCCc3ccccc3)n[nH]2)cc1	–	0.0224 µM [falling, full curve, poor fit]
CCOC(=O)CN(Cc1sccc1C)C(=O)Nc1ccc(OC)cc1OC	25.1 µM [rising, single point]	20 µM [rising, single point]
COc1ccc(NS(=O)(=O)c2ccc(S(=O)(=O)N3CCCC3)cc2)cc1Cl	–	15.8 µM [rising, single point]
COc1ccc(-c2nc3cnc(N(C)C)nc3n(Cc3cccs3)c2=O)cc1	–	35.5 µM [falling, single point]
COc1ccc(CN2CCN(c3ccccn3)CC2)cc1OCc1ccccc1	–	17.8 µM [rising, single point]
CCc1nn(-c2cc(Cl)ccc2OC)c2c1C(=O)CCC2	–	31.6 µM [rising, single point]
